PubChem BioAssay AID1159599 | NIAID | 2016
Shown is one part, drawn at random, of 756 reagents tested. In the full data, 130 (17%) were called active. 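Calls are two-sided: actives include siRNAs that raised the Tnf reporter as well as ones that lowered it.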 Reagents against one gene are numbered here. Not stated in the record: the amount of reagent.

Assay: 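Mouse macrophage genes that control Tnf-alpha promoter output upon LPS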
Cells: mouse RAW264.7 G9 macrophage reporter clone cells
Reagent: single siRNA against mouse genes
Duration: 48 to 72 h after siRNA transfection, LPS for the last 16 h
Challenge: LPS (Salmonella minnesota R595), 16 h before fixation; dose not stated
Detection: 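Nuclear mCherry from a Tnf promoter reporter imaged after LPS, background removed, robust z-score from per-plate median and MAD, averaged over replicates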
Direction: Tnf reporter z-score: higher = stronger Tnf promoter reporter signal after LPS
Rule for the call: 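Active when the replicate-mean Tnf reporter z-score is about -1.5 or lower, or about 1.5 or higher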
Meaning of the calls: active = strong change either way; inactive = little change

| gene | reagent | Tnf reporter z-score, replicate mean | Outcome |
| --- | --- | --- | --- |
| Ube2n | 1 | -0.108 | inactive |
| Ube2n | 2 | -1.05 | inactive |
| Ube2n | 3 | 0.0827 | inactive |
| Ube2n | 4 | -0.466 | inactive |
| Ube2n | 5 | -0.167 | inactive |
| Ube2n | 6 | -0.82 | inactive |
| Fadd | 1 | -0.307 | inactive |
| Fadd | 2 | -2.25 | active |
| Fadd | 3 | -0.787 | inactive |
| Fadd | 4 | 0.743 | inactive |
| Fadd | 5 | -0.888 | inactive |
| Fadd | 6 | 0.145 | inactive |
| Dusp1 | 1 | 1.26 | inactive |
| Dusp1 | 2 | 0.104 | inactive |
| Dusp1 | 3 | -0.572 | inactive |
| Dusp1 | 4 | 0.18 | inactive |
| Dusp1 | 5 | 0.262 | inactive |
| Dusp1 | 6 | -0.928 | inactive |
| Ikbke | 1 | -1.37 | inactive |
| Ikbke | 2 | -0.853 | inactive |
| Ikbke | 3 | -1.37 | inactive |
| Ikbke | 4 | -1.92 | active |
| Ikbke | 5 | -0.247 | inactive |
| Ikbke | 6 | -1.57 | active |
| Stat1 | 1 | 0.49 | inactive |
| Stat1 | 2 | 0.727 | inactive |
| Stat1 | 3 | 0.141 | inactive |
| Stat1 | 4 | -0.398 | inactive |
| Stat1 | 5 | -0.765 | inactive |
| Stat1 | 6 | -1.73 | active |
| Myd88 | 1 | -1.06 | inactive |
| Myd88 | 2 | -2.21 | active |
| Myd88 | 3 | -0.842 | inactive |
| Myd88 | 4 | -1.52 | active |
| Myd88 | 5 | -0.573 | inactive |
| Myd88 | 6 | 0.176 | inactive |
| Tlr3 | 1 | 0.314 | inactive |
| Tlr3 | 2 | -2.19 | active |
| Tlr3 | 3 | -0.186 | inactive |
| Tlr3 | 4 | 0.688 | inactive |
| Tlr3 | 5 | 0.596 | inactive |
| Tlr3 | 6 | 1.19 | inactive |
| Jun | 1 | -1.51 | active |
| Jun | 2 | -1.05 | inactive |
| Jun | 3 | -0.983 | inactive |
| Jun | 4 | -0.853 | inactive |
| Jun | 5 | -1.08 | inactive |
| Jun | 6 | -0.153 | inactive |
| Il1b | 1 | 0.346 | inactive |
| Il1b | 2 | -1.56 | active |
| Il1b | 3 | -0.805 | inactive |
| Il1b | 4 | -0.27 | inactive |
| Il1b | 5 | 1 | inactive |
| Il1b | 6 | 0.384 | inactive |
| Traf3 | 1 | -0.156 | inactive |
| Traf3 | 2 | -0.919 | inactive |
| Traf3 | 3 | -0.547 | inactive |
| Traf3 | 4 | 0.583 | inactive |
| Traf3 | 5 | -1.03 | inactive |
| Traf3 | 6 | -0.0264 | inactive |
| Crebbp | 1 | 0.832 | inactive |
| Crebbp | 2 | -1.49 | inactive |
| Crebbp | 3 | -1.59 | active |
| Crebbp | 4 | 0.284 | inactive |
| Crebbp | 5 | -1.57 | active |
| Crebbp | 6 | -0.727 | inactive |
| Ube2v1 | 1 | -0.432 | inactive |
| Ube2v1 | 2 | -0.0181 | inactive |
| Ube2v1 | 3 | 0.139 | inactive |
| Ube2v1 | 4 | -0.494 | inactive |
| Ube2v1 | 5 | 2.33 | active |
| Ube2v1 | 6 | -1.98 | active |
| Cd14 | 1 | -1.76 | active |
| Cd14 | 2 | -2.08 | active |
| Cd14 | 3 | -1.69 | active |
| Cd14 | 4 | 0.342 | inactive |
| Cd14 | 5 | -1.85 | active |
| Cd14 | 6 | 0.107 | inactive |
| Map3k1 | 1 | -0.148 | inactive |
| Map3k1 | 2 | -2.4 | active |
| Map3k1 | 3 | 0.492 | inactive |
| Map3k1 | 4 | 1.18 | inactive |
| Map3k1 | 5 | -0.309 | inactive |
| Map3k1 | 6 | 0.196 | inactive |
| Tbkbp1 | 1 | 0.449 | inactive |
| Tbkbp1 | 2 | -0.559 | inactive |
| Tbkbp1 | 3 | 0.649 | inactive |
| Tbkbp1 | 4 | 0.153 | inactive |
| Tbkbp1 | 5 | 0.409 | inactive |
| Tbkbp1 | 6 | -0.218 | inactive |
| Tradd | 1 | 3.35 | active |
| Tradd | 2 | -0.474 | inactive |
| Tradd | 3 | 0.187 | inactive |
| Tradd | 4 | 0.528 | inactive |
| Tradd | 5 | -0.785 | inactive |
| Tradd | 6 | -0.36 | inactive |
| Mapk11 | 1 | 0.696 | inactive |
| Mapk11 | 2 | -1.42 | inactive |
| Mapk11 | 3 | 1.21 | inactive |
| Mapk11 | 4 | -0.333 | inactive |
| Mapk11 | 5 | -1.58 | active |
| Mapk11 | 6 | -0.258 | inactive |
| Map2k7 | 1 | 2.47 | active |
| Map2k7 | 2 | -0.857 | inactive |
| Map2k7 | 3 | -1.11 | inactive |
| Map2k7 | 4 | -0.566 | inactive |
| Map2k7 | 5 | 0.369 | inactive |
| Map2k7 | 6 | -0.778 | inactive |
| Irak2 | 1 | -0.279 | inactive |
| Irak2 | 2 | -0.937 | inactive |
| Irak2 | 3 | -1.52 | active |
| Irak2 | 4 | -0.182 | inactive |
| Irak2 | 5 | -1.79 | active |
| Irak2 | 6 | -1.63 | active |
| Pik3r2 | 1 | -0.0796 | inactive |
| Pik3r2 | 2 | -0.501 | inactive |
| Pik3r2 | 3 | -0.5 | inactive |
| Pik3r2 | 4 | 0.994 | inactive |
| Pik3r2 | 5 | 0.4 | inactive |
| Pik3r2 | 6 | -0.579 | inactive |
| Sigirr | 1 | -1.15 | inactive |
| Sigirr | 2 | -0.532 | inactive |
| Sigirr | 3 | -1.23 | inactive |
| Sigirr | 4 | 0.559 | inactive |
| Sigirr | 5 | -0.562 | inactive |
| Sigirr | 6 | 0.484 | inactive |
| Map3k8 | 1 | -0.0213 | inactive |
| Map3k8 | 2 | 0.804 | inactive |
| Map3k8 | 3 | -1 | inactive |
| Map3k8 | 4 | 0.543 | inactive |
| Map3k8 | 5 | -0.0518 | inactive |
| Map3k8 | 6 | -1.24 | inactive |
| Tnf | 1 | -0.232 | inactive |
| Tnf | 2 | 1.06 | inactive |
| Tnf | 3 | -1.02 | inactive |
| Tnf | 4 | -0.547 | inactive |
| Tnf | 5 | -0.191 | inactive |
| Tnf | 6 | -2.25 | active |
| Cxcl11 | 1 | -0.323 | inactive |
| Cxcl11 | 2 | -0.585 | inactive |
| Cxcl11 | 3 | 0.109 | inactive |
| Cxcl11 | 4 | -0.217 | inactive |
| Cxcl11 | 5 | -0.245 | inactive |
| Cxcl11 | 6 | -1.56 | active |

Copied from the list.
Under “Outcome”, Map2k7 #1 is entered as active
Under “Outcome”, Ube2v1 #3 shows inactive
Value for Mapk11 #6 in “Tnf reporter z-score, replicate mean”: -0.258
Entry for Ube2n #6 under “Tnf reporter z-score, replicate mean”: -0.82
Under “Tnf reporter z-score, replicate mean”, Stat1 #5 reads -0.765
For “Tnf reporter z-score, replicate mean”, Sigirr #6 has 0.484
